Results are given in words; binding and its absence hold for the method and conditions named. In cells and extracts the contact can be indirect. Binding calls can cover weak binding; strength is not graded here. Sequences can lack the tags named with a protein.
How the values were obtained:
Experiment in all cases: co-IP
[1] = target: T1, RCN1-GFP (Arabidopsis thaliana) (UniProt Q38845)
T1 sequence: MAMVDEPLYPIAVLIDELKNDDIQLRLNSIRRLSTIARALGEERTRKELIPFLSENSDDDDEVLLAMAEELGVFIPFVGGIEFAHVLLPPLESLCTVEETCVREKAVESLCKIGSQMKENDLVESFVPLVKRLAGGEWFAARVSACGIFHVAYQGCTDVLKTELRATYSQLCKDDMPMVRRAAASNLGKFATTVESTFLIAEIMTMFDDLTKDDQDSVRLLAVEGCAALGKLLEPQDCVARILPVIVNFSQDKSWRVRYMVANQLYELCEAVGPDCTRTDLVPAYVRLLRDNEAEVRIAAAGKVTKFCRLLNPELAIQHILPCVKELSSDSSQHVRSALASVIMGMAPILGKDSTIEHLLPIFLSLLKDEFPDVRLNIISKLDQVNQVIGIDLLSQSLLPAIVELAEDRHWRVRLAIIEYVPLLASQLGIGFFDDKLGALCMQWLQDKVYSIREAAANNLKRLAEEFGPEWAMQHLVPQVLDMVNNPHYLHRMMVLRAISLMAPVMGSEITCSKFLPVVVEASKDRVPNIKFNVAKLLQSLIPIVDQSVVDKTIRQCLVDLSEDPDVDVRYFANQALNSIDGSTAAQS

[2] = target: T2, YFP-B’α (Arabidopsis thaliana) (UniProt O04375)
T2 sequence: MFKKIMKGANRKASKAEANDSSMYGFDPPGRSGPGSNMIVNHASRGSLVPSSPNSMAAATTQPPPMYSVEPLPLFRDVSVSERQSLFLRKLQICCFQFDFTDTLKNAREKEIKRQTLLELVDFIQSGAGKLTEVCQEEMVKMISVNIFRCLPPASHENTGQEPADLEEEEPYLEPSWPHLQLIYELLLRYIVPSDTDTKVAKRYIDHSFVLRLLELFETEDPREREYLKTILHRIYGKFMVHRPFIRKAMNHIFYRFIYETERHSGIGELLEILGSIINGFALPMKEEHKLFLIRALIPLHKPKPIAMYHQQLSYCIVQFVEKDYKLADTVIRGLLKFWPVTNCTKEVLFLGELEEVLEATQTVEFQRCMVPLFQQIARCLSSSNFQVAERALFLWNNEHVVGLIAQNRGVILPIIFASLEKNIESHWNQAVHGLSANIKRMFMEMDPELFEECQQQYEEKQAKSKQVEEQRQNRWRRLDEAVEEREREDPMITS

[3] = target: T3, YFP-B’β (Arabidopsis thaliana) (UniProt O04376)
T3 sequence: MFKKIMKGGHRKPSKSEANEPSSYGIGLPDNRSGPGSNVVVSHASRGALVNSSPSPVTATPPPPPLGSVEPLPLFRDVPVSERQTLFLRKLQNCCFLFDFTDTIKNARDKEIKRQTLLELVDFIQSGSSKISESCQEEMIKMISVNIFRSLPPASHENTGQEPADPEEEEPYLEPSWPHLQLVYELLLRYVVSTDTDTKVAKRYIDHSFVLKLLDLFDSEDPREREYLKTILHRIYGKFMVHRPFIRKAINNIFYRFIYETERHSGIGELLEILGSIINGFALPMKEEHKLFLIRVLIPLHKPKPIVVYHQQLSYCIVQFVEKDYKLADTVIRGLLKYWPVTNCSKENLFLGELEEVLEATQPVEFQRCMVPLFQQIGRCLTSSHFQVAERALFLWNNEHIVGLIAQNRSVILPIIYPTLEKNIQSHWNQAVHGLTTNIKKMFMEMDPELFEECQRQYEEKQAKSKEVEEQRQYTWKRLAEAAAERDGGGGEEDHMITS

binding [1]: binds
binding [2]: binds
binding [3]: binds
Substance: PP2A C subunit (enzyme)

Source: publication doi:10.1101/2023.08.17.553727
